Three molecules from paper PMC10425521, “Crosstalk between glucocorticoid and mineralocorticoid receptors boosts glucocorticoid-induced killing of multiple myeloma cells” (Cellular and Molecular Life Sciences: CMLS, 2023) can be followed below.

By UniProt entry, the sequences of proteins in these tests, tags left out.
UniProt P08235: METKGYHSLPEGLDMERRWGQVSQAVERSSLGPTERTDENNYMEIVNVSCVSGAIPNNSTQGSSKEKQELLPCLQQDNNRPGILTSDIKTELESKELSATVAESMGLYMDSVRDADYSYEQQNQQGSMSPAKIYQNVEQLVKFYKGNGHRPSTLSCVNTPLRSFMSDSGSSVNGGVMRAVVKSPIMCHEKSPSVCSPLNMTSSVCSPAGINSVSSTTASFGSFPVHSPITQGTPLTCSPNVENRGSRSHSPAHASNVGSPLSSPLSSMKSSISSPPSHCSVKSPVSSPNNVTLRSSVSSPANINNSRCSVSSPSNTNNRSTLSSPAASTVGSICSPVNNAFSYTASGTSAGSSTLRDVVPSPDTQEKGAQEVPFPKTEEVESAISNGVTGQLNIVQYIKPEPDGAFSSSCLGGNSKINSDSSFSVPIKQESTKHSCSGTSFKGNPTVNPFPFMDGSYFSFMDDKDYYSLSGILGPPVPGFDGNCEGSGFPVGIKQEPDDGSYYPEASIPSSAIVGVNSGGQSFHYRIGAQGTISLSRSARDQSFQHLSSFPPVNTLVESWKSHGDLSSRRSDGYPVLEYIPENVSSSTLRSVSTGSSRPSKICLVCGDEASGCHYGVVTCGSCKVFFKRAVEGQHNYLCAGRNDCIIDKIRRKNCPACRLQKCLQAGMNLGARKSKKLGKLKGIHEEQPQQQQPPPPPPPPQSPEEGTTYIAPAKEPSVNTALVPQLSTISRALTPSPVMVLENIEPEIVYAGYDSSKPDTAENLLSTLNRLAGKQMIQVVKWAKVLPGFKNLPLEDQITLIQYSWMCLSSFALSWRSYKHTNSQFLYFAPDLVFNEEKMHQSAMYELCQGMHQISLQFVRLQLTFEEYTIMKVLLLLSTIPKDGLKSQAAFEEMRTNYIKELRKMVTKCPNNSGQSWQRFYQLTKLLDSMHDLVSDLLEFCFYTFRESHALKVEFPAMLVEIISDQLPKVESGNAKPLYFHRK

Assay [1] has as its target LgBiT-MR (mineralocorticoid receptor with LgBiT at the N-terminus) (UniProt P08235). Description: condition: only with Spi (10^-5 M) added to Dex (10^-6 M); split reporter; NanoBiT in intact HEK293T cells, Dex (10^-6 M) together with Spi (10^-5 M) added after baseline, luminescence over 60 min, normalised to baseline and given as fold versus solvent.
For assay [2] the target is unchanged. Description: split reporter; NanoBiT in intact HEK293T cells, Dex (10^-6 M) added after baseline, luminescence over 60 min, normalised to baseline and given as fold versus solvent.
Assay [3] addresses glucocorticoid receptor (GR), endogenous in myeloma cells (human (endogenous in MM1.S and OPM-2)) (UniProt P04150). Description: co-IP; endogenous GR immunoprecipitated with anti-GR G5 from MM1.S or OPM-2 lysates (NP-40 lysis buffer: 50 mM Tris-HCl pH 8.0, 150 mM NaCl, 1% NP-40; 4 °C), blot with anti-MR 6G1; cells treated 30 min with solvent, Dex (10^-6 M), Spi (10^-5 M) or Dex-Spi.

Assay [4] concerns the target LgBiT-MR (mineralocorticoid receptor with LgBiT at the N-terminus) (UniProt P08235). Kind of assay: split reporter; NanoBiT in intact HEK293T cells, Spi (10^-5 M) alone added after baseline, luminescence over 60 min, normalised to baseline and given as fold versus solvent.

These are yes or no findings as the source states them, for the method shown. In cells and extracts the contact can be indirect. Some results given as binding are weak or reduced against the parent protein; the word gives no strength.

Regarding “MR-SmBiT (mineralocorticoid receptor with SmBiT at the C-terminus) (from UniProt P08235 1-984)”, the binding entry in assay [1] is reported as “no binding”; in assay [2] it was “binds”. For “mineralocorticoid receptor (MR), endogenous in myeloma cells (from UniProt P08235 1-984)”, the binding entry in assay [3] is “binds”.

B1: GR-SmBiT (glucocorticoid receptor with SmBiT at the C-terminus) (receptor, UniProt P04150 1-777, looked up)
chain: MDSKESLTPGREENPSSVLAQERGDVMDFYKTLRGGATVKVSASSPSLAVASQSDSKQRRLLVDFPKGSVSNAQQPDLSKAVSLSMGLYMGETETKVMGNDLGFPQQGQISLSSGETDLKLLEESIANLNRSTSVPENPKSSASTAVSAAPTEKEFPKTHSDVSSEQQHLKGQTGTNGGNVKLYTTDQSTFDILQDLEFSSGSPGKETNESPWRSDLLIDENCLLSPLAGEDDSFLLEGNSNEDCKPLILPDTKPKIKDNGDLVLSSPSNVTLPQVKTEKEDFIELCTPGVIKQEKLGTVYCQASFPGANIIGNKMSAISVHGVSTSGGQMYHYDMNTASLSQQQDQKPIFNVIPPIPVGSENWNRCQGSGDDNLTSLGTLNFPGRTVFSNGYSSPSMRPDVSSPPSSSSTATTGPPPKLCLVCSDEASGCHYGVLTCGSCKVFFKRAVEGQHNYLCAGRNDCIIDKIRRKNCPACRYRKCLQAGMNLEARKTKKKIKGIQQATTGVSQETSENPGNKTIVPATLPQLTPTLVSLLEVIEPEVLYAGYDSSVPDSTWRIMTTLNMLGGRQVIAAVKWAKAIPGFRNLHLDDQMTLLQYSWMFLMAFALGWRSYRQSSANLLCFAPDLIINEQRMTLPCMYDQCKHMLYVSSELHRLQVSYEEYLCMKTLLLLSSVPKDGLKSQELFDEIRMTYIKELGKAIVKREGNSSQNWQRFYQLTKLLDSMHEVVENLLNYCFQTFLDKTMSIEFPEMLAEIITNQIPKYSNGNIKKLLFHQK
notes: glucocorticoid receptor (GR, NR3C1); NanoBiT fusion; also called pGR-SmBiT; source: HEK293T, transfected (calcium phosphate), in intact cells; not shown: SmBiT, C-terminal, kept
For the molecule B1, in assay [4], the binding result was “no binding (condition: Spi (10^-5 M) alone, without Dex)”.
